{
  "source": "the supplement of paper PMC10403144",
  "note": "The other results are listed elsewhere or left out.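 Rule for the calls: active = mitochondrial OCR inhibition above 30% at 1 uM; inactive = 30% or less.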 Most values come without repeats; read them as rough.",
  "data": [
    {"system": "Toxoplasma gondii RH tachyzoites", "test": "inhibition of mitochondrial O2 consumption rate (% inhibition (relative to pre-injection OCR and atovaquone/antimycin A control)); higher = stronger ETC inhibition", "conditions": "1 µM; injection port (sequential injection order): A", "values": [
      {"smiles": "CS(=O)(=O)N1CCC(CCn2nc(Cc3cccc4ccccc34)c3c(N)ncnc32)CC1", "inhibition of mitochondrial O2 consumption rate": "inactive: 8.76"},
      {"smiles": "O=C1N(Cc2cc3ccccc3s2)CC2CN(Cc3ccccc3)CCN12", "note": "(stereo not drawn)", "inhibition of mitochondrial O2 consumption rate": "inactive: 2.36"},
      {"smiles": "O=C(Nc1ccc(N2CCNCC2)cc1)c1ccn2ncc(-c3cccc(Cl)c3)c2n1", "inhibition of mitochondrial O2 consumption rate": "inactive: -3.31"},
      {"smiles": "CCCS(=O)(=O)N1CCC(CO)(Cc2ccccc2C(F)(F)F)CC1", "inhibition of mitochondrial O2 consumption rate": "inactive: -12.4"},
      {"smiles": "COC(=O)c1ccc(F)cc1NS(=O)(=O)c1cccc(-c2cnn(Cc3ccccc3)c2)c1", "inhibition of mitochondrial O2 consumption rate": "inactive: 1.67"},
      {"smiles": "CC(C)(C)OC(=O)N1CCC(Cn2nc(-c3cnc4ccccc4c3)c3c(N)ncnc32)CC1", "inhibition of mitochondrial O2 consumption rate": "inactive: -4.94"},
      {"smiles": "CC1COC2(CCN(c3nc(=O)c4cc(C(F)(F)F)cc([N+](=O)[O-])c4s3)CC2)O1", "note": "(stereo not drawn)", "inhibition of mitochondrial O2 consumption rate": "inactive: 9.27"},
      {"smiles": "Cc1cc(C)n(-c2ccc(NC(=O)C3CCN(Cc4cnc(C)s4)CC3)cc2)n1", "inhibition of mitochondrial O2 consumption rate": "inactive: -14.1"},
      {"smiles": "Cc1ccc2nc(Cl)c(CNCc3cccs3)cc2c1", "inhibition of mitochondrial O2 consumption rate": "inactive: -2.86"},
      {"smiles": "CC(C)(C)OC(=O)N1CCN(c2nccc(-c3ccc(-c4ccc(Cl)cc4)s3)n2)CC1", "inhibition of mitochondrial O2 consumption rate": "inactive: -12.1"},
      {"smiles": "O=C(CN1CCOCC1)Nc1ccc2ncnc(Nc3ccc(OCc4cccc(F)c4)c(Cl)c3)c2c1", "inhibition of mitochondrial O2 consumption rate": "inactive: -1.01"},
      {"smiles": "O=C(NCc1ccco1)N1CCN(Cc2ccc(Cl)s2)CC1", "inhibition of mitochondrial O2 consumption rate": "inactive: -0.861"},
      {"smiles": "NCC(=O)N1CCn2c(nc(-c3ccccc3)c2Nc2ccc3c(c2)OCO3)C1", "inhibition of mitochondrial O2 consumption rate": "inactive: -4.16"}
    ]}
  ]
}
